Reference: the supplement of paper PMC12067093, “Discovery and optimisation of a covalent ligand for TRIM25 and its application to targeted protein ubiquitination” (Chemical Science, 2025)
The other results are listed elsewhere or left out.

Compound: CC1Cc2ccccc2N1C(=O)C1CCCN(C1)C(=O)CCl (mixture of isomers) [TRIM25 ligand 11 (diastereomer mixture)]
Assay: probe-labelled cysteine peptide fold change vs DMSO (competition) (log2 fold change); higher = less target engagement (more negative = stronger competition)
Details: 10 µM; THP-1; incubation time: 4 h
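Note: competitive chemoproteomic profiling in live THP-1 cells with an iodoacetamide desthiobiotin (IA-DTB) probe, comparing probe-labelled peptide intensities in compound-treated cells against DMSO-treated controls.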

Target	probe-labelled cysteine peptide fold change
CHCHD7_Q9BUK0_16_LRDPDINPCLSESDASTR (UniProt Q9BUK0)	-0.0672
CLTA_P09496_218_LCDFNPK (UniProt P09496)	-0.262
CIAPIN1_Q6FI81_251_NCTCGLAEELEK (UniProt Q6FI81)	-0.0756
CLTC_Q00610_870_IHEGCEEPATHNALAK (UniProt Q00610)	0.064
CIAO2B_Q9Y3D0_158_VAAALENTHLLEVVNQCLSAR (UniProt Q9Y3D0)	-0.226
CHKB_Q9Y259_17_AAEATAVAGSGAVGGCLAK (UniProt Q9Y259)	-0.00739
CLTC_Q00610_926_GQCDLELINVCNENSLFK (UniProt Q00610)	-0.0753
CKAP5_Q14008_637_TEMPCQALVR (UniProt Q14008)	-0.0126
CHD1L_Q86WJ1_123_FAPGLSCVTYAGDK (UniProt Q86WJ1)	0.329
CLTC_Q00610_1565_RECFGACLFTCYDLLRPDVVLETAWR (UniProt Q00610)	0.367
CHKB_Q9Y259_282_GFDIGNHFCEWVYDYTHEEWPFYK (UniProt Q9Y259)	0.315
CLTC_Q00610_934_GQCDLELINVCNENSLFK (UniProt Q00610)	0.0433
CLCN3_P51790_733_VCFAQHTPSLPAESPRPLK (UniProt P51790)	0.0602
CINP_Q9BW66_81_VCLEYNEELEK (UniProt Q9BW66)	-0.0595
CHPF_Q8IZ52_266_MLLQQLRPHLEGCR (UniProt Q8IZ52)	0.176
CLUH_O75153_1196_CLTQQAVALQR (UniProt O75153)	-0.00877
CHD4_Q14839_1018+1019_CCNHPYLFPVAAMEAPK (UniProt Q14839)	-0.12
CLEC11A_Q9Y240_319_LYYVCEFPF (UniProt Q9Y240)	-0.116
CIZ1_Q9ULV3_631_LGEIQHMSQACLLSLLPVPR (UniProt Q9ULV3)	0.111

Target	probe-labelled cysteine peptide fold change
CHAF1B_Q13112_283_RPIAHLPCPGK (UniProt Q13112)	-0.0943
CFAP298_P57076_83_CVPSGGAVFKK (UniProt P57076)	-0.323
CLEC11A_Q9Y240_177_LEGCLK (UniProt Q9Y240)	0.182
CKAP2_Q8WWK9_100_HCIPLKPSNELTNSTVVIDTHKPK (UniProt Q8WWK9)	-0.363
CIP2A_Q8TCG1_752_DLQITCDSLNK (UniProt Q8TCG1)	-0.0398
CKB_P12277_254_FCTGLTQIETLFK (UniProt P12277)	0.0398
CFL1_P23528_39_AVLFCLSEDK (UniProt P23528)	-0.0174
CFL1_P23528_139_HELQANCYEEVK (UniProt P23528)	-0.0396
CKAP5_Q14008_1360_AECLEELGCLVESYGMNVCQPTPGK (UniProt Q14008)	-0.0127
CLTC_Q00610_926+934_GQCDLELINVCNENSLFK (UniProt Q00610)	-0.0773
CLEC16A_Q2KHT3_588_DVHLACLEGAREESVHLVR (UniProt Q2KHT3)	-0.164
CES1_P23141_285_TTTSAVMVHCLR (UniProt P23141)	0.0835
CHST14_Q8NCH0_159_VACSNWK (UniProt Q8NCH0)	0.0818
CISD3_P0C7P0_71_KQPFCDGSHFFQR (UniProt P0C7P0)	0.0265
CHML_P26374_187_TCMHTVSDK (UniProt P26374)	-0.044
CHKB_Q9Y259_85_CSLPDHLPSVGEEPREVLLR (UniProt Q9Y259)	-0.301
CHD6_Q8TD26_172_SCTDSAAR (UniProt Q8TD26)	-0.00541
CIP2A_Q8TCG1_472_VADSELCK (UniProt Q8TCG1)	0.133
CIAPIN1_Q6FI81_285_CASCPYLGMPAFKPGEK (UniProt Q6FI81)	-0.127

Same assay, conditions: 50 µM; THP-1; incubation time: 4 h

Target	probe-labelled cysteine peptide fold change
CHCHD7_Q9BUK0_16_LRDPDINPCLSESDASTR (UniProt Q9BUK0)	-0.133
CLTA_P09496_218_LCDFNPK (UniProt P09496)	-0.275
CIAPIN1_Q6FI81_251_NCTCGLAEELEK (UniProt Q6FI81)	-0.268
CLTC_Q00610_870_IHEGCEEPATHNALAK (UniProt Q00610)	-0.0249
CIAO2B_Q9Y3D0_158_VAAALENTHLLEVVNQCLSAR (UniProt Q9Y3D0)	-0.22
CHKB_Q9Y259_17_AAEATAVAGSGAVGGCLAK (UniProt Q9Y259)	-0.415
CLTC_Q00610_926_GQCDLELINVCNENSLFK (UniProt Q00610)	-0.209
CKAP5_Q14008_637_TEMPCQALVR (UniProt Q14008)	-0.234
CHD1L_Q86WJ1_123_FAPGLSCVTYAGDK (UniProt Q86WJ1)	0.29
CLTC_Q00610_1565_RECFGACLFTCYDLLRPDVVLETAWR (UniProt Q00610)	0.182
CHKB_Q9Y259_282_GFDIGNHFCEWVYDYTHEEWPFYK (UniProt Q9Y259)	0.0979
CLTC_Q00610_934_GQCDLELINVCNENSLFK (UniProt Q00610)	-0.109
CLCN3_P51790_733_VCFAQHTPSLPAESPRPLK (UniProt P51790)	0.0245
CINP_Q9BW66_81_VCLEYNEELEK (UniProt Q9BW66)	-0.0128
CHPF_Q8IZ52_266_MLLQQLRPHLEGCR (UniProt Q8IZ52)	0.00392
CLUH_O75153_1196_CLTQQAVALQR (UniProt O75153)	-0.228
CHD4_Q14839_1018+1019_CCNHPYLFPVAAMEAPK (UniProt Q14839)	-0.0493
CLEC11A_Q9Y240_319_LYYVCEFPF (UniProt Q9Y240)	0.0121
CIZ1_Q9ULV3_631_LGEIQHMSQACLLSLLPVPR (UniProt Q9ULV3)	-0.097

Target	probe-labelled cysteine peptide fold change
CHAF1B_Q13112_283_RPIAHLPCPGK (UniProt Q13112)	0.0163
CFAP298_P57076_83_CVPSGGAVFKK (UniProt P57076)	-0.293
CLEC11A_Q9Y240_177_LEGCLK (UniProt Q9Y240)	0.258
CKAP2_Q8WWK9_100_HCIPLKPSNELTNSTVVIDTHKPK (UniProt Q8WWK9)	-0.423
CIP2A_Q8TCG1_752_DLQITCDSLNK (UniProt Q8TCG1)	0.0511
CKB_P12277_254_FCTGLTQIETLFK (UniProt P12277)	-0.0625
CFL1_P23528_39_AVLFCLSEDK (UniProt P23528)	-0.0478
CFL1_P23528_139_HELQANCYEEVK (UniProt P23528)	-0.169
CKAP5_Q14008_1360_AECLEELGCLVESYGMNVCQPTPGK (UniProt Q14008)	0.116
CLTC_Q00610_926+934_GQCDLELINVCNENSLFK (UniProt Q00610)	0.0843
CLEC16A_Q2KHT3_588_DVHLACLEGAREESVHLVR (UniProt Q2KHT3)	-0.105
CES1_P23141_285_TTTSAVMVHCLR (UniProt P23141)	0.0709
CHST14_Q8NCH0_159_VACSNWK (UniProt Q8NCH0)	0.116
CISD3_P0C7P0_71_KQPFCDGSHFFQR (UniProt P0C7P0)	0.0656
CHML_P26374_187_TCMHTVSDK (UniProt P26374)	-0.277
CHKB_Q9Y259_85_CSLPDHLPSVGEEPREVLLR (UniProt Q9Y259)	-0.0104
CHD6_Q8TD26_172_SCTDSAAR (UniProt Q8TD26)	-0.0208
CIP2A_Q8TCG1_472_VADSELCK (UniProt Q8TCG1)	0.168
CIAPIN1_Q6FI81_285_CASCPYLGMPAFKPGEK (UniProt Q6FI81)	-0.178
